According to the supplement of paper PMC10849652:
The other results are listed elsewhere or left out.

Sequences of proteins named here, by UniProt entry; tags and fusion partners are left off. A change or cut given only in a name is not applied to a line headed by its entry.
UniProt P36959: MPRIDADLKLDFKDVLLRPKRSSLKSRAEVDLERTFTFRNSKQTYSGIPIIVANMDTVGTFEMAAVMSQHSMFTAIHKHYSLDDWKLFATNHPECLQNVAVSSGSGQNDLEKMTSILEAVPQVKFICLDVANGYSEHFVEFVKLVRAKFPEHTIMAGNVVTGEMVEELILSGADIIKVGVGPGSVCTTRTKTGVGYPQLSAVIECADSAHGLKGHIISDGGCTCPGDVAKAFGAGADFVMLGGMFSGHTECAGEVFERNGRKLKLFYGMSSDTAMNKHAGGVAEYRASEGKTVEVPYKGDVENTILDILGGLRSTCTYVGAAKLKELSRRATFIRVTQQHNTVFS
UniProt B7ZAQ6: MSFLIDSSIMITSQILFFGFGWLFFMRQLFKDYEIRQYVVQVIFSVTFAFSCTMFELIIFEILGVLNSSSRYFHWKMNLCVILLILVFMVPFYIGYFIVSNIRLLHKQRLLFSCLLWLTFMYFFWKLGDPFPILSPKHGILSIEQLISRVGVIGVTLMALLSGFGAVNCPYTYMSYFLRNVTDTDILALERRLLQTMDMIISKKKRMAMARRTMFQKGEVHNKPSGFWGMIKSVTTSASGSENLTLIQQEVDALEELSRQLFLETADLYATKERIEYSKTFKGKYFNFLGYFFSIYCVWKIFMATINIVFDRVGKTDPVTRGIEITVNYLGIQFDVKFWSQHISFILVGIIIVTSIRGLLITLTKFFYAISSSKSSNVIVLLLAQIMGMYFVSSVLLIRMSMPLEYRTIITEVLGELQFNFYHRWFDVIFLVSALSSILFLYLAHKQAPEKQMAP
UniProt O14653: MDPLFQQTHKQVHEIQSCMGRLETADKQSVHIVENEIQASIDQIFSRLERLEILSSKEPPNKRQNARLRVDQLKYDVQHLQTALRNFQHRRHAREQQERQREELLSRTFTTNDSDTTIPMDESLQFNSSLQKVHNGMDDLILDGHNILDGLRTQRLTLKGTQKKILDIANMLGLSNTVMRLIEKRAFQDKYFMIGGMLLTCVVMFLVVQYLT
UniProt Q9H4A6: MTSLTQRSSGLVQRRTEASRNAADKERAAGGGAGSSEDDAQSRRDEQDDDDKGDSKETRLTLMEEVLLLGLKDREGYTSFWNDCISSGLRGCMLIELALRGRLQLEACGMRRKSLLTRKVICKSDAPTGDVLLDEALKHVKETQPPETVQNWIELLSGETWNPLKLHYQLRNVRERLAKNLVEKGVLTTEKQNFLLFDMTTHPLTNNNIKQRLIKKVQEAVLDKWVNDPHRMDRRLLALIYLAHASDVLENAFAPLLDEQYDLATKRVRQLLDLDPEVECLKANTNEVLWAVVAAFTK
UniProt Q8IW92: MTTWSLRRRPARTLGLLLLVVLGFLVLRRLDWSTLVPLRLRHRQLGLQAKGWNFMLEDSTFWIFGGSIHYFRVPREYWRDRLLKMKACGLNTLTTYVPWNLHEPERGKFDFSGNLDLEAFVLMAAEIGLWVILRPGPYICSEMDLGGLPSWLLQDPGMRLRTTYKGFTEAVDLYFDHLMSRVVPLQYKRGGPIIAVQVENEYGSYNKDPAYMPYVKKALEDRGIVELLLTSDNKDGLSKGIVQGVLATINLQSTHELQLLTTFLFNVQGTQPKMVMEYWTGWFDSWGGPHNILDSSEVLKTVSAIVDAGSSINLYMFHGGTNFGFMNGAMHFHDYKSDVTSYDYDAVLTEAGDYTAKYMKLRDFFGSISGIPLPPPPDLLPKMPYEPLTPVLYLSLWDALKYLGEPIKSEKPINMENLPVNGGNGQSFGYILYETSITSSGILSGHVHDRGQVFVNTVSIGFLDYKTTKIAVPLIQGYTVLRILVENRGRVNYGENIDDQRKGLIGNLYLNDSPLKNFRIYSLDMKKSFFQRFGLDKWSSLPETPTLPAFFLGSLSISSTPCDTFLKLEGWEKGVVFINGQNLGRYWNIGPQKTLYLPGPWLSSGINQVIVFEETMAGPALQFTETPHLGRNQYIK
UniProt O14908: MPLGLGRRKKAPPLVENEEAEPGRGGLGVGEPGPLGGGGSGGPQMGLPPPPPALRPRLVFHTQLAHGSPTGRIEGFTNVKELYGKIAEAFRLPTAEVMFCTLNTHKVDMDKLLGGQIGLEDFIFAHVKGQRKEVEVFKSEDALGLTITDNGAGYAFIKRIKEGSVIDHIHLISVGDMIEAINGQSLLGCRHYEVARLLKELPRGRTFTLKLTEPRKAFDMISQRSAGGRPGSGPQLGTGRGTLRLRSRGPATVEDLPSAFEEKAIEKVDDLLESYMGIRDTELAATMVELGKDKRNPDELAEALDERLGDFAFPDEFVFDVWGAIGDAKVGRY
UniProt Q92820: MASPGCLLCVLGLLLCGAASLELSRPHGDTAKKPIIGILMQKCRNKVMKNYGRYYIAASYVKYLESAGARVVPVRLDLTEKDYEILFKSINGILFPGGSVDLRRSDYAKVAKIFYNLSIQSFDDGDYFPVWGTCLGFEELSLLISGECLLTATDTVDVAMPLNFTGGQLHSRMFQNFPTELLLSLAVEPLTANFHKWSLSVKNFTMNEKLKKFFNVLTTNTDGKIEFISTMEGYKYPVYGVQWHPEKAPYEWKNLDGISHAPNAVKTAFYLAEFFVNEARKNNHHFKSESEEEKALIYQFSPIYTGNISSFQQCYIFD
UniProt O95749: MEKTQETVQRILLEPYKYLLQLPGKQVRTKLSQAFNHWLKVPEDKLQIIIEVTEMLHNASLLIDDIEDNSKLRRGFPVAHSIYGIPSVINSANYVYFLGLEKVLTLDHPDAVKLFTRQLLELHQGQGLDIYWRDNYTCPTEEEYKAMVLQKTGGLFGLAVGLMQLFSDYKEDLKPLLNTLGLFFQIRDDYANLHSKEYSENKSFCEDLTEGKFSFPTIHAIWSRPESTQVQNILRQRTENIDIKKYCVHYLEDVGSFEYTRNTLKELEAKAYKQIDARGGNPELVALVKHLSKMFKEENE
UniProt P32189: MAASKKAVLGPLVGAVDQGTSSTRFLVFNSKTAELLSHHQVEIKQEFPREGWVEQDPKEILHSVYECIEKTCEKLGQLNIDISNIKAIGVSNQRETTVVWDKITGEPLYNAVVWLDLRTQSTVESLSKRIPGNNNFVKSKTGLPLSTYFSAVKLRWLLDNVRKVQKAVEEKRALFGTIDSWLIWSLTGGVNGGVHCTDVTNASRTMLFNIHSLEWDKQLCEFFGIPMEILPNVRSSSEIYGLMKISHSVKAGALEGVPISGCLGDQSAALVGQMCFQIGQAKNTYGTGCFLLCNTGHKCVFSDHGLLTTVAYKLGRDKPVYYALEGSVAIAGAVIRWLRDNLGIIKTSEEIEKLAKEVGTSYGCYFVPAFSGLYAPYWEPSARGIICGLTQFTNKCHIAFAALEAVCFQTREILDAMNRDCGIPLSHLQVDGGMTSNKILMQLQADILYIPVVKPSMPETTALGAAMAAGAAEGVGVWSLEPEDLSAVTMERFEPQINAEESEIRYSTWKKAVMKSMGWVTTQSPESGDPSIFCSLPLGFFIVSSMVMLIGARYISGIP
UniProt P21695: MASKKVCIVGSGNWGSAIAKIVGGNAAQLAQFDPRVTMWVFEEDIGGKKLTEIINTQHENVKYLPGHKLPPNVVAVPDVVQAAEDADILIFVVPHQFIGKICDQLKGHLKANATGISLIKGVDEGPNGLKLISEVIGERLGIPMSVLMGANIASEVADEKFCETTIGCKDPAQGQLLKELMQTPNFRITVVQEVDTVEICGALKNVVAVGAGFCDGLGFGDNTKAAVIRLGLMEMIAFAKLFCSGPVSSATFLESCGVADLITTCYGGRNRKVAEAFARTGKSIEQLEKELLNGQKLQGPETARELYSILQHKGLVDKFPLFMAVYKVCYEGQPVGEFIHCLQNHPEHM
UniProt P15104, whole entry, looked up: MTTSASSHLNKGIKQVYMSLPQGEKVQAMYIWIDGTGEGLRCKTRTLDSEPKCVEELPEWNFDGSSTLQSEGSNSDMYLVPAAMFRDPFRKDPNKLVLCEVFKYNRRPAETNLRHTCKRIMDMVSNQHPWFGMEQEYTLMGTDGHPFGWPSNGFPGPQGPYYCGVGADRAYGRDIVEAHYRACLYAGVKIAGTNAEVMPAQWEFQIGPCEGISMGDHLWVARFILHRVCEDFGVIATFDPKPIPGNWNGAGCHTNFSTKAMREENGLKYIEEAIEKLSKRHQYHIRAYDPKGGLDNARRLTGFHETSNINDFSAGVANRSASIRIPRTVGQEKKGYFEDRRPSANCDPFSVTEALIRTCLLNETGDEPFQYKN
UniProt Q9NPB8: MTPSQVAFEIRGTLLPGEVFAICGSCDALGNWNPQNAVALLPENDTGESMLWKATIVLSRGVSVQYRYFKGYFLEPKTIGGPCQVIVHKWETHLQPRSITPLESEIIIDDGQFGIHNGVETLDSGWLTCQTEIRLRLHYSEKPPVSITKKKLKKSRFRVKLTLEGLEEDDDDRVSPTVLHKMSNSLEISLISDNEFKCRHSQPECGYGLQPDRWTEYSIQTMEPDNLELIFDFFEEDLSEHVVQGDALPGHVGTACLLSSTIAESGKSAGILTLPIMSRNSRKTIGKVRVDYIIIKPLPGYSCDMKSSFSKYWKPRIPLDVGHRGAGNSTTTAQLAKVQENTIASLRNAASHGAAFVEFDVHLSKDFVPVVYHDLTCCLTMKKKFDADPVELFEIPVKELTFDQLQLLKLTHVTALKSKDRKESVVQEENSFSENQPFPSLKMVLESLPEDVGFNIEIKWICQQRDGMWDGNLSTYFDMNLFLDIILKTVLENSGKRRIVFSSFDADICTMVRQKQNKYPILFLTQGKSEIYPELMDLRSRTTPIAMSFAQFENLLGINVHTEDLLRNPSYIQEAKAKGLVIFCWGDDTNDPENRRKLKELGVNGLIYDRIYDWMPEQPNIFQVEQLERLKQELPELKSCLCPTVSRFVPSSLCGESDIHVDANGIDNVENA
UniProt O43292: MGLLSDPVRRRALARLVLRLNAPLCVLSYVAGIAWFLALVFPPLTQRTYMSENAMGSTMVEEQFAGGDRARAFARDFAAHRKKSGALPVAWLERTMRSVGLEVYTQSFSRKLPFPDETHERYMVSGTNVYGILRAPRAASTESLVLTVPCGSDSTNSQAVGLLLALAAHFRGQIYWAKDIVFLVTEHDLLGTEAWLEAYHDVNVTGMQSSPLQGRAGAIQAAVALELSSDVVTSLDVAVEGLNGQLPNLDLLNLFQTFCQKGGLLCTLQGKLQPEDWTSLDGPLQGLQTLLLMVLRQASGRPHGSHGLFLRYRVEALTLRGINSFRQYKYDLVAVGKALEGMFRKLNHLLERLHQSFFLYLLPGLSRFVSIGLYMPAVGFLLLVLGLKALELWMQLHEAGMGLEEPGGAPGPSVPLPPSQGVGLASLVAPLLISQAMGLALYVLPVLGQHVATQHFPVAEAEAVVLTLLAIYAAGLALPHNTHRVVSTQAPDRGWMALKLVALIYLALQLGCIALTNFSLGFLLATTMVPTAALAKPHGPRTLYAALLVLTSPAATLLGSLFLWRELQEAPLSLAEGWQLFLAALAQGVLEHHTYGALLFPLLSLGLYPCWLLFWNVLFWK
UniProt Q9Y3E0: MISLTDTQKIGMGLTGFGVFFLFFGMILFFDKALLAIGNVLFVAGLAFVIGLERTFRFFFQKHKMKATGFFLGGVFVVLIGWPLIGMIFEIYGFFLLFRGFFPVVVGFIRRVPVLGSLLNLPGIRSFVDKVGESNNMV
UniProt Q9BRX5: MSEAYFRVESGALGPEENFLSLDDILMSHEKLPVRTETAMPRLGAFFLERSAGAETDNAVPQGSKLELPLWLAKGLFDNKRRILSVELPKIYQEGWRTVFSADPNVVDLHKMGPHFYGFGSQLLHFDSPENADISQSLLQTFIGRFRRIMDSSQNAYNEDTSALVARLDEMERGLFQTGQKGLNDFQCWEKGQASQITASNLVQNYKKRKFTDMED
UniProt Q92805: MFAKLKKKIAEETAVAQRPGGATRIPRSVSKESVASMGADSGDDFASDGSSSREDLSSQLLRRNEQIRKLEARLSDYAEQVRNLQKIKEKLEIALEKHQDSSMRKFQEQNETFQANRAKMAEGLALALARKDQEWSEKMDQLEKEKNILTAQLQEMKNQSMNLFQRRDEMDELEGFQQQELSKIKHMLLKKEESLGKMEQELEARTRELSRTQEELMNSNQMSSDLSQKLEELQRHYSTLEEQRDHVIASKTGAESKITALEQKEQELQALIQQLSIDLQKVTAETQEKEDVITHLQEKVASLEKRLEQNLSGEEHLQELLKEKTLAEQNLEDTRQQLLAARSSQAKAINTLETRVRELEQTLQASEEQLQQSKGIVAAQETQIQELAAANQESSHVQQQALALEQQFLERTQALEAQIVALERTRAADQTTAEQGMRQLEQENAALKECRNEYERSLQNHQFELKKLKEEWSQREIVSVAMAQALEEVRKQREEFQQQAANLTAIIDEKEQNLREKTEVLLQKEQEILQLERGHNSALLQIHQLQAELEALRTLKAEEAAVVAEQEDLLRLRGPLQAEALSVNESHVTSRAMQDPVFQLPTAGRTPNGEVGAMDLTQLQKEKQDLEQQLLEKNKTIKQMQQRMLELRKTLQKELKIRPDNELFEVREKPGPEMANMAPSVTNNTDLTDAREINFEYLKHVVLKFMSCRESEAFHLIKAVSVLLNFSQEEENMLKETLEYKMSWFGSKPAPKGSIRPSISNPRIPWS

Assays:
Assay in all cases: log2 fold change, soluble protein after heating vs DMSO (PISA); higher = thermal stabilisation; K562 lysate, 10 uM; active = over 0.2 and 3.5 SD of the protein, either way, in both replicates (recomputed)
[1] = compound: C#Cc1cccc(Nc2ncnc3cc(OCCOC)c(OCCOC)cc23)c1 [erlotinib]
Procedure, shortened: (§1)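 Values give the log-two fold change in thermal stability against solvent controls, from duplicates. Crude K562 extract at 1 mg/mL protein, made by dounce homogenisation in PBS pH 7.4 with 1 mM MgCl2, was treated with 10 μM compound for 30 min. After 3 min heating across 48°C-58°C, aliquots were pooled, adjusted to 0.5% NP-40 at 4°C and centrifuged at 21,000xg for 90 min. The supernatant was measured by TMTpro 16plex LC-MS/MS with channel sums equalised.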

[2] = compound: C/C(=N\NC(=O)C1=CC(=CC=C1)S(=O)(=O)N2CCOCC2)/C3=C(C=CC(=C3)Cl)O
Procedure, shortened: as §1

[3] = compound: C1=CC(=CC=C1C2=NC3=C(N2)C=C(C=C3)C(=O)N)OC4=CC=C(C=C4)Cl
Procedure, shortened: as §1

[4] = compound: C1=CC2=C(C=CC(=C2)/C=C\3/C(=O)NC(=NCC4=CC=CS4)S3)N=C1
Procedure, shortened: as §1

[5] = compound: C1=CC2=NC=CN=C2C=C1/C=C/3\C(=O)NC(=O)S3
Procedure, shortened: as §1

[6] = compound: C1=CC=C(C=C1)C2=NC(=C(N2)C3=CC=NC=C3)C4=CC(=C(C=C4)Cl)O
Procedure, shortened: as §1

[7] = compound: C1=CC=C2C(=C1)C3=NNC4=CC=CC(=C43)C2=O
Procedure, shortened: as §1

[8] = compound: C1CCN(C1)C(=O)NC2=CC=CC(=C2)NC3=NC=C(C(=N3)NCCC4=CN=CN4)Br
Procedure, shortened: as §1

[9] = compound: C1CN(CCC1(CC2=CC=C(C=C2)Cl)N)C3=NC=NC4=C3C=CN4
Procedure, shortened: as §1

[10] = compound: C1COCCN1CCN2C3=CC=CC=C3N=C2NC(=O)C4=CC(=CC=C4)[N+](=O)[O-] [IRAK-1-4 Inhibitor I]
Procedure, shortened: as §1

[11] = compound: C=CC(=O)N1CCC[C@@H](n2nc(-c3ccc(Oc4ccccc4)cc3)c3c(N)ncnc32)C1 [ibrutinib]
Procedure, shortened: as §1

[12] = compound: CC(=O)c1cnc2ccc(-c3cc(Cl)c(O)c(Cl)c3)nc2c1N[C@H]1CC[C@H](CN(C)C)CC1
Procedure, shortened: as §1

[13] = compound: CC(C)(C)Cn1c(N)nc2ccc(-c3[nH]c(C(C)(C)C)nc3-c3ccc(F)cc3)nc21 [ralimetinib]
Procedure, shortened: as §1

[14] = compound: CC(C)(O)CC(=O)NCCn1ccc2ncnc(Nc3ccc(Oc4cccc(C(F)(F)F)c4)c(Cl)c3)c21
Procedure, shortened: as §1

[15] = compound: CC(C)C1=C2N=C(C=C(N2N=C1)NCC3=CC=CC=C3)NCCCCCCN
Procedure, shortened: as §1

[16] = compound: CC1=C(C(CC(=O)N1)C2=CC=C(C=C2)C(F)(F)F)C(=O)NC3=C(C=C4C(=C3)C=NN4)F
Procedure, shortened: as §1

[17] = compound: CC1=C(C2=C(C=C1)C(=O)C3=CC=CC=C3N2CCCN)C
Procedure, shortened: as §1

[18] = compound: CC1=C(C=C(C=C1)NC(=O)C2=CC(=CC=C2)C(C)(C)C#N)NC3=CC4=C(C=C3)N=CN(C4=O)C
Procedure, shortened: as §1

[19] = compound: CC1=C(C=C(C=C1)NC(=O)C2=CC(=CC=C2)N(C)C)NC(=O)C3=CC=C(C=C3)O
Procedure, shortened: as §1

[20] = compound: CC1=CC=C(C=C1)SC2=C3C=C(SC3=CN=C2)C(=O)N
Procedure, shortened: as §1

Measured: log2 fold change

GMPR (UniProt P36959)
inactive: [1] -0.001 | [2] 0.028 | [3] 0.024 | [4] 0.051 | [5] 0.005 | [6] -0.015 | [7] 0.014 | [8] -0.001 | [9] 0.003 | [10] 0.032 | [11] 0.047 | [12] 0.001 | [13] 0.004 | [14] -0.062 | [15] 0.008 | [16] 0.016 | [17] -0.007 | [18] -0.024 | [19] -0.008 | [20] -0.018

GPR89A (UniProt B7ZAQ6)
inactive: [1] 0.062 | [2] 0.02 | [3] -0.11 | [4] -0.098 | [5] 0.024 | [6] -0.037 | [7] -0.081 | [8] 0.061 | [9] -0.044 | [10] 0.003 | [11] -0.044 | [12] 0.028 | [13] -0.051 | [14] -0.148 | [15] -0.103 | [16] 0.073 | [17] 0.006 | [18] 0.018 | [19] 0.059 | [20] -0.071

GOSR2 isoform 2 (UniProt O14653)
inactive: [1] 0.022 | [2] -0.024 | [3] -0.14 | [4] -0.029 | [5] -0.043 | [6] -0.011 | [7] -0.129 | [8] 0.014 | [9] -0.002 | [10] 0.023 | [11] 0.064 | [12] 0.008 | [13] -0.003 | [14] 0.005 | [15] -0.021 | [16] -0.049 | [17] 0.001 | [18] -0.02 | [19] -0.004 | [20] -0.032

GOLPH3 (UniProt Q9H4A6)
inactive: [1] 0.022 | [2] -0.041 | [3] -0.075 | [4] 0.017 | [5] 0.012 | [6] 0.004 | [7] 0.019 | [8] -0.008 | [9] -0.02 | [10] 0.035 | [11] 0.024 | [12] 0 | [13] 0.034 | [14] -0.019 | [15] 0.043 | [16] -0.023 | [17] 0.001 | [18] -0.02 | [19] -0.023 | [20] 0.004

Reprinted at random: 2 entries already listed, in no set order.
GPR89A (UniProt B7ZAQ6)
inactive: [1] 0.062 | [2] 0.02 | [3] -0.11 | [4] -0.098 | [5] 0.024 | [6] -0.037 | [7] -0.081 | [8] 0.061 | [9] -0.044 | [10] 0.003 | [11] -0.044 | [12] 0.028 | [13] -0.051 | [14] -0.148 | [15] -0.103 | [16] 0.073 | [17] 0.006 | [18] 0.018 | [19] 0.059 | [20] -0.071

GOSR2 isoform 2 (UniProt O14653)
inactive: [1] 0.022 | [2] -0.024 | [3] -0.14 | [4] -0.029 | [5] -0.043 | [6] -0.011 | [7] -0.129 | [8] 0.014 | [9] -0.002 | [10] 0.023 | [11] 0.064 | [12] 0.008 | [13] -0.003 | [14] 0.005 | [15] -0.021 | [16] -0.049 | [17] 0.001 | [18] -0.02 | [19] -0.004 | [20] -0.032

Carrying on:

GLB1L2 (UniProt Q8IW92)
inactive: [1] -0.059 | [2] 0.028 | [3] -0.063 | [4] -0.015 | [5] -0.017 | [6] -0.029 | [7] -0.017 | [8] -0.056 | [9] 0.121 | [10] -0.022 | [11] 0.011 | [12] -0.023 | [13] 0.015 | [14] -0.013 | [15] 0.013 | [16] -0.15 | [17] -0.036 | [18] -0.014 | [19] 0.056 | [20] 0.041

GIPC1 (UniProt O14908)
inactive: [1] 0.054 | [2] 0.042 | [3] 0.046 | [4] 0.028 | [5] 0.016 | [6] -0.014 | [7] 0.006 | [8] -0.063 | [9] -0.018 | [10] -0.026 | [11] 0.008 | [12] -0.059 | [13] 0.022 | [14] -0.004 | [15] -0.071 | [16] -0.021 | [17] 0.044 | [18] -0.027 | [19] 0.013 | [20] -0.012

GGH (UniProt Q92820)
inactive: [1] -0.004 | [2] 0.058 | [3] 0.034 | [4] 0.02 | [5] 0.007 | [6] -0.018 | [7] 0.048 | [8] 0.015 | [9] 0.017 | [10] -0.003 | [11] -0.011 | [12] -0.015 | [13] 0.005 | [14] -0.067 | [15] 0.038 | [16] 0.019 | [17] 0.018 | [18] 0.071 | [19] -0.065 | [20] -0.001

GGPS1 (UniProt O95749)
inactive: [1] -0.03 | [2] -0.018 | [3] -0.009 | [4] 0.031 | [5] 0.001 | [6] -0.022 | [7] -0.028 | [8] 0.001 | [9] 0 | [10] -0.015 | [11] 0.01 | [12] 0.012 | [13] 0.004 | [14] 0.023 | [15] -0.005 | [16] 0.003 | [17] -0.031 | [18] -0.005 | [19] -0.04 | [20] 0.044

GK (UniProt P32189)
inactive: [1] -0.015 | [2] -0.004 | [3] -0.035 | [4] 0 | [5] 0.028 | [6] -0.007 | [7] -0.038 | [8] 0.01 | [9] -0.007 | [10] 0.006 | [11] 0.02 | [12] 0.029 | [13] 0.061 | [14] 0.008 | [15] -0.027 | [16] 0.024 | [17] 0.019 | [18] 0.008 | [19] -0.009 | [20] -0.032

GPD1 (UniProt P21695)
inactive: [1] 0.078 | [2] 0.093 | [3] 0.086 | [4] -0.19 | [5] -0.025 | [6] -0.148 | [7] -0.075 | [8] -0.043 | [9] 0.093 | [10] 0.193 | [11] 0.015 | [12] -0.027 | [13] 0.006 | [14] -0.314 | [15] 0.059 | [16] 0.016 | [17] -0.096 | [18] 0.242 | [19] -0.136 | [20] -0.143

GLUL (UniProt P15104)
inactive: [1] -0.003 | [2] 0.032 | [3] -0.002 | [4] 0.029 | [5] -0.03 | [6] 0.005 | [7] 0.007 | [8] 0.013 | [9] 0.017 | [10] -0.017 | [11] 0.031 | [12] 0.004 | [13] 0.006 | [14] -0.002 | [15] -0.008 | [16] 0.026 | [17] 0.023 | [18] -0.117 | [19] -0.011 | [20] 0.031

GPCPD1 (UniProt Q9NPB8)
inactive: [1] 0.046 | [2] -0.053 | [3] 0.034 | [4] -0.025 | [5] -0.028 | [6] -0.043 | [7] -0.028 | [8] -0.005 | [9] 0.036 | [10] -0.033 | [11] 0.012 | [12] 0.018 | [13] 0.026 | [14] 0.021 | [15] -0.018 | [16] 0.019 | [17] -0.018 | [18] -0.053 | [19] -0.007 | [20] 0.065

GPAA1 (UniProt O43292)
inactive: [1] 0.029 | [2] -0.118 | [3] -0.054 | [4] -0.009 | [5] -0.014 | [6] -0.032 | [7] -0.116 | [8] -0.008 | [9] -0.004 | [10] 0.054 | [11] 0.067 | [12] 0.037 | [13] 0.015 | [14] -0.142 | [15] -0.062 | [16] 0.009 | [17] -0.038 | [18] -0.005 | [19] 0.039 | [20] 0.012

GOLT1B (UniProt Q9Y3E0)
inactive: [1] 0.033 | [2] 0.021 | [3] -0.023 | [4] 0.082 | [5] -0.024 | [6] 0.037 | [7] -0.007 | [8] -0.03 | [9] -0.011 | [10] -0.006 | [11] -0.063 | [12] 0.017 | [13] 0.014 | [14] -0.008 | [15] 0.015 | [16] 0.042 | [17] -0.024 | [18] -0.039 | [19] -0.02 | [20] -0.082

GINS3 (UniProt Q9BRX5)
inactive: [1] -0.039 | [2] 0.006 | [3] -0.053 | [4] 0.015 | [5] -0.031 | [6] -0.011 | [7] 0.007 | [8] 0.016 | [9] 0.073 | [10] -0.012 | [11] 0.088 | [12] 0.024 | [13] 0.039 | [14] 0.024 | [15] -0.028 | [16] 0.013 | [17] 0.061 | [18] -0.007 | [19] 0.022 | [20] 0.004

GOLGA1 (UniProt Q92805)
inactive: [1] 0.029 | [2] 0.09 | [3] -0.002 | [4] -0.004 | [5] 0.021 | [6] 0 | [7] 0.124 | [8] 0.018 | [9] 0.038 | [10] 0.017 | [11] 0.128 | [12] 0.008 | [13] -0.024 | [14] -0.018 | [15] -0.019 | [16] 0.081 | [17] 0.027 | [18] -0.023 | [19] 0.019 | [20] 0.034
